# Assay results from the supplement of paper PMC12595434, “Development of retinoid nuclear receptor pathway antagonists through targeting aldehyde dehydrogenase 1A3” (iScience, 2025).
# Sequences of proteins named here, by UniProt entry; tags and fusion partners are left off. A change or cut given only in a name is not applied to a line headed by its entry.
# UniProt P78527, whole entry: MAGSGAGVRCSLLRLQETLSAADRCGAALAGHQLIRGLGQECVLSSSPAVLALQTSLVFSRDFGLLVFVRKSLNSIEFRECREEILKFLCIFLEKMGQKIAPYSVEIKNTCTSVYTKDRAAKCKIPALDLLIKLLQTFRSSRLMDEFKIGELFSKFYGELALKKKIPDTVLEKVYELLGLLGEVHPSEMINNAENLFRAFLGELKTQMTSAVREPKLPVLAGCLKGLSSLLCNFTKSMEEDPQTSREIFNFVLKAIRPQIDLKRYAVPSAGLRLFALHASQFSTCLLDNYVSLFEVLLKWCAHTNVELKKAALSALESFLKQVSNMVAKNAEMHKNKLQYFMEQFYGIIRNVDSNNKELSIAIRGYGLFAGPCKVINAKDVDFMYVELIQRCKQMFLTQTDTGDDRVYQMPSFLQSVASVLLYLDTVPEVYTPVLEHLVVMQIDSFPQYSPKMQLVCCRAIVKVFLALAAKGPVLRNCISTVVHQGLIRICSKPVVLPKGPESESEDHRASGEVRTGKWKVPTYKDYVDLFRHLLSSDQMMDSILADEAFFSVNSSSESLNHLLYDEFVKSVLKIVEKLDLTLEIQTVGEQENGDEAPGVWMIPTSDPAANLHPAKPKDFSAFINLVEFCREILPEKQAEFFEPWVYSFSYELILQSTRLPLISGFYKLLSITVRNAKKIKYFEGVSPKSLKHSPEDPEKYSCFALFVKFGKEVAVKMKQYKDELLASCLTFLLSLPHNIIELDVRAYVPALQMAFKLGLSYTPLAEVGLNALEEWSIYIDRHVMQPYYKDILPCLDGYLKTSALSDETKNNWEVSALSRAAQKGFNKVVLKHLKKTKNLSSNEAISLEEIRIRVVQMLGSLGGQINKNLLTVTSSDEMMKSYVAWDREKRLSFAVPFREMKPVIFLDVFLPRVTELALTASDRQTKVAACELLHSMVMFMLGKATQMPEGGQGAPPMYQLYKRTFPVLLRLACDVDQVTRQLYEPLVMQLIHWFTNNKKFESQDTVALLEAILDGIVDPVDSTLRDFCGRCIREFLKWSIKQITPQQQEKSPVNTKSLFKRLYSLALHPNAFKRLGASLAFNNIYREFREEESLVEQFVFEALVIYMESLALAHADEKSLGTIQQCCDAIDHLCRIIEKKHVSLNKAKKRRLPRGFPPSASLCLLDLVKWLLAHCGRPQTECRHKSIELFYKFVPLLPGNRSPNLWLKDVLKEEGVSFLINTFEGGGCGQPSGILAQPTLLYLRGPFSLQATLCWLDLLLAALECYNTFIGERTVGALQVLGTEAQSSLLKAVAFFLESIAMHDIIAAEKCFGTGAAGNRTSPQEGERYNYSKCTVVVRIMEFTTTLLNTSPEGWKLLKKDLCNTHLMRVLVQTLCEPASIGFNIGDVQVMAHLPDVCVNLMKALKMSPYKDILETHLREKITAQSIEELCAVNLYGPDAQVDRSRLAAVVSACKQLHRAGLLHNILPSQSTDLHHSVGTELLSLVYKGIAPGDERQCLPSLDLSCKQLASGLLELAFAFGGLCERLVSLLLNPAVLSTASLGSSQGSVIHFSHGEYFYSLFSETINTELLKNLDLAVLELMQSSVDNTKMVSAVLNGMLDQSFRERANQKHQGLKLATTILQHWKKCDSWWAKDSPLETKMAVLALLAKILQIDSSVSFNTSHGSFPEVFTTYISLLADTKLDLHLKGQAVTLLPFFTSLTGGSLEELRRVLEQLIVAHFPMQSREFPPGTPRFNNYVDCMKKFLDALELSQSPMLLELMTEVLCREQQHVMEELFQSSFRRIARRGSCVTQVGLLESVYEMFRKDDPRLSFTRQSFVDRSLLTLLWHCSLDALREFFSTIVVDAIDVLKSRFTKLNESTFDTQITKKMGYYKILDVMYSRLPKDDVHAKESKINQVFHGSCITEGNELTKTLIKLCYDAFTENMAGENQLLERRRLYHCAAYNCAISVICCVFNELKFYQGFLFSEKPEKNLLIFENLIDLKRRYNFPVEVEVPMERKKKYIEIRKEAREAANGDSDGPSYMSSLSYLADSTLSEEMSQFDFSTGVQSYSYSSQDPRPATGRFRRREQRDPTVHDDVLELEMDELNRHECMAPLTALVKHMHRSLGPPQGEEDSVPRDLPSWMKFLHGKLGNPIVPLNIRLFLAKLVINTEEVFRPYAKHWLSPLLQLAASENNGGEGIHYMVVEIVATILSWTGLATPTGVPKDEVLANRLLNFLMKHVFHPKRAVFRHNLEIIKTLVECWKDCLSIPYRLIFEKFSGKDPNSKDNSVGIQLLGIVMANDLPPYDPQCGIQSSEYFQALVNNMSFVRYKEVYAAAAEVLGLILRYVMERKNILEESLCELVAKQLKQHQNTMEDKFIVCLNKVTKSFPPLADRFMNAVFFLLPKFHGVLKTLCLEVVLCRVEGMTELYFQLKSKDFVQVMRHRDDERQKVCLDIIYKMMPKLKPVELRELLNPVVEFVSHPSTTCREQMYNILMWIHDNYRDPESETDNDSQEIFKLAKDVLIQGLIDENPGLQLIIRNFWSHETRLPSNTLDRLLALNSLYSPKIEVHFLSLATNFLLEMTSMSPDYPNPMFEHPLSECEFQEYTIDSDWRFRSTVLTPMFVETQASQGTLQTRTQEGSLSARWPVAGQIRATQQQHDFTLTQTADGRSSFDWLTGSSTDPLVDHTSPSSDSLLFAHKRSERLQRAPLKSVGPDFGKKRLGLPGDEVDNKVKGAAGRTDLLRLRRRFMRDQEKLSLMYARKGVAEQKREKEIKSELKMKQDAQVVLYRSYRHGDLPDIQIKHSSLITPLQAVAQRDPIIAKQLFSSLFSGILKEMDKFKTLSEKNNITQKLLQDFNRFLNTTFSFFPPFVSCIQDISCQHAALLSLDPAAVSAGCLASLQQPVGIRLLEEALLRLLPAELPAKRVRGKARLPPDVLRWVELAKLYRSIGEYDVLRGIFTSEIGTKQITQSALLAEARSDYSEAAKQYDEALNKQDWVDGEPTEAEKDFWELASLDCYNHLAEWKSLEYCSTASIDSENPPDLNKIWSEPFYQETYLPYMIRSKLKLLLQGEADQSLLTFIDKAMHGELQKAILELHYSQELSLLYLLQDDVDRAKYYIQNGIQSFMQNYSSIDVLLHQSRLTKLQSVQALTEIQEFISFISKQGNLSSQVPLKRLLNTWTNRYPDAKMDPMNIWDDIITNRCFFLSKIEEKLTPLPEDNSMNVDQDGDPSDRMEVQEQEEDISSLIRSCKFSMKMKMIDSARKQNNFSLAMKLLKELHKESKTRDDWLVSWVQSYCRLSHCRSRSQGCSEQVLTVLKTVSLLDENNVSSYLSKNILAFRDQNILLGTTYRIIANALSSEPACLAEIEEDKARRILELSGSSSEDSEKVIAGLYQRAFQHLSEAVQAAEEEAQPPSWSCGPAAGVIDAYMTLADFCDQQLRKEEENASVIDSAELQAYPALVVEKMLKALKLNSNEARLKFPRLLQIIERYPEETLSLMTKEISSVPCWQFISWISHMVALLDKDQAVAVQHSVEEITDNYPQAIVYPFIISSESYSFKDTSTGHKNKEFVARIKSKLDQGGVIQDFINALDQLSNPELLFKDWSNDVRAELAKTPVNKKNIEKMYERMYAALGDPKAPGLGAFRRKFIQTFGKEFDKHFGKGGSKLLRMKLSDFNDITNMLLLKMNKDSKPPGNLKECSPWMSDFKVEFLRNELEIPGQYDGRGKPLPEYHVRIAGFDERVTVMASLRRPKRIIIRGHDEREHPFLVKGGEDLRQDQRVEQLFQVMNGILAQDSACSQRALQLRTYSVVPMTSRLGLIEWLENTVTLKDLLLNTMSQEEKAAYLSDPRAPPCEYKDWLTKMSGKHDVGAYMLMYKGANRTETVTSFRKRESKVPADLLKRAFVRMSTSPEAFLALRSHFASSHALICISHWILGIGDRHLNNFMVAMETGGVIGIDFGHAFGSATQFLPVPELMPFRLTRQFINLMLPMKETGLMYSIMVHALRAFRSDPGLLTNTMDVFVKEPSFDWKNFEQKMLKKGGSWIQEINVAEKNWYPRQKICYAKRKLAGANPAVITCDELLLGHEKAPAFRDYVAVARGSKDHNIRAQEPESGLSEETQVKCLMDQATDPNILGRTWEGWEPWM
# UniProt Q04323: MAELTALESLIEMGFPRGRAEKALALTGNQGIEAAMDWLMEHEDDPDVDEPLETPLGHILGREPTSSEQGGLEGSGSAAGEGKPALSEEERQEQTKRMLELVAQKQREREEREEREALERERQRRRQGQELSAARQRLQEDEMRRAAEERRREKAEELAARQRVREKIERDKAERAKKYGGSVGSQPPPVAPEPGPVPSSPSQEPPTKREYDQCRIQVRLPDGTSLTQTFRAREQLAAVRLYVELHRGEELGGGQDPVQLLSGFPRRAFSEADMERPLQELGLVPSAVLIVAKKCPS
# UniProt Q12873: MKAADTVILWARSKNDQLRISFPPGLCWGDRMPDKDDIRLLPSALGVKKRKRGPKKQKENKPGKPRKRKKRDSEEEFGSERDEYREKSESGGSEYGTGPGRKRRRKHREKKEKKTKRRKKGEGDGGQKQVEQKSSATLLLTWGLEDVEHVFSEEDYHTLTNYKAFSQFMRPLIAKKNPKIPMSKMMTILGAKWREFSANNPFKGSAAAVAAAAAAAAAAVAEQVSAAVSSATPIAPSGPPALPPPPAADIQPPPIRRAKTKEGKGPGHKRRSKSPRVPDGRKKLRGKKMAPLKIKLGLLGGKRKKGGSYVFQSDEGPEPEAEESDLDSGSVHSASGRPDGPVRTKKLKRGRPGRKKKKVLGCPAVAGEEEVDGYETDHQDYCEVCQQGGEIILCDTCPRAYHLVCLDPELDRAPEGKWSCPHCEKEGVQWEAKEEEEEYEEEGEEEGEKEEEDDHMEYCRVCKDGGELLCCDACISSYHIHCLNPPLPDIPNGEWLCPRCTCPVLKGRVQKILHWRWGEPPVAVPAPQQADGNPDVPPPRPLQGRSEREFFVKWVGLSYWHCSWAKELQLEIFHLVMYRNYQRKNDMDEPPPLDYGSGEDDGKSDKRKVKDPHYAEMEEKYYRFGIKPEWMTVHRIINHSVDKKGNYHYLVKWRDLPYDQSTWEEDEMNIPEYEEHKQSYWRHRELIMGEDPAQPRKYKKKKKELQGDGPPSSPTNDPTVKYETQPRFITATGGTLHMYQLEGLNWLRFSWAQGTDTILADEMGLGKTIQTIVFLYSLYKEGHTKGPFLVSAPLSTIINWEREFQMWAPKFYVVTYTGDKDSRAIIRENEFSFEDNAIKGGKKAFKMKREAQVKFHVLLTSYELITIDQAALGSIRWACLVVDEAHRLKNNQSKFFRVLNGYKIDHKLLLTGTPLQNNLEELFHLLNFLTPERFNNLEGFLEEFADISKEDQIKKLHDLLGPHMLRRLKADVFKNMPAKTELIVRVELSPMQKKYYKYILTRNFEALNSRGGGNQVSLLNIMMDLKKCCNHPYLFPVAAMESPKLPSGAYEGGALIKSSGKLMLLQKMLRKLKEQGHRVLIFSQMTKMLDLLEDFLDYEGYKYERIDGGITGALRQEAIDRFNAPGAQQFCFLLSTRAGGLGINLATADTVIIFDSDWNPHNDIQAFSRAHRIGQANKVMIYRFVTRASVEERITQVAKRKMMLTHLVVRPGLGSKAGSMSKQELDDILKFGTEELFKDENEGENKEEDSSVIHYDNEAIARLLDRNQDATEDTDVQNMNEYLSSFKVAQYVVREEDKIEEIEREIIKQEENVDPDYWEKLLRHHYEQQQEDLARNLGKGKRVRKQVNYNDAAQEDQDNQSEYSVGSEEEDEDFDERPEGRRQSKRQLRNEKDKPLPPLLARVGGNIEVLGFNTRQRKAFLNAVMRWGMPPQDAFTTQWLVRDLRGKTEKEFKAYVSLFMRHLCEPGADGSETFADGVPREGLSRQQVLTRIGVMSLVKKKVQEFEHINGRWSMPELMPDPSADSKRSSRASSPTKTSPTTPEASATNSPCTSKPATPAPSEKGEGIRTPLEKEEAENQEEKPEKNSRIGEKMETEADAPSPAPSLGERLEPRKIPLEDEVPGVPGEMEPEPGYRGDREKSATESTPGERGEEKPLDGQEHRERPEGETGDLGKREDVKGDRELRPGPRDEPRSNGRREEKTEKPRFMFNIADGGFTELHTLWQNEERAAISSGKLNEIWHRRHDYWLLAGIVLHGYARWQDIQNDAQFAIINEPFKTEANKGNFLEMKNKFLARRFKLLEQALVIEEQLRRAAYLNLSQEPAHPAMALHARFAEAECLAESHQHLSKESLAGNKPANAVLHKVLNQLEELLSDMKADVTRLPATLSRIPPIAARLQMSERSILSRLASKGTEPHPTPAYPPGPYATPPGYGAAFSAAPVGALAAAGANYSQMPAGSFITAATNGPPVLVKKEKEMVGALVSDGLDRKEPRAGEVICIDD
# UniProt P82909: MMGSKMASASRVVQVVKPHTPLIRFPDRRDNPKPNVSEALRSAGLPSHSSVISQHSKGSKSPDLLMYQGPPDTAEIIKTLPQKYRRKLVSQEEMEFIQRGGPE
# This is one part of the list. The data scatter; read single values as rough.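 Tm was set to 64 °C where no melting was found, and many curves are irregular.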
# Compound: CCc1cnccc1C(=O)Nc1cc2c(cc1F)NC(=O)CC2
# Experiment: melting temperature shift (DMSO Tm minus MBE1-treated Tm) in cellular thermal proteome profiling; higher = less thermal stabilization by MBE1 (negative = stabilized by MBE1)
# Settings: A375
Target,melting temperature shift (MBE1 concentration: 100 nM),melting temperature shift (MBE1 concentration: 1 uM)
GOLGA2 (UniProt Q08379),-0.267 °C,-0.622 °C
SSRP1 (UniProt Q08945),-0.308 °C,-0.384 °C
UniProt Q02086,–,1.35 °C
UniProt P79483,–,-2.93 °C
UniProt Q02078,-0.362 °C,-0.423 °C
PLAUR (UniProt Q03405),-4.59 °C,-0.36 °C
NCBP1 (UniProt Q09161),1.25 °C,0.226 °C
GALNT1 (UniProt Q10472),-0.657 °C,-0.483 °C
SLC25A11 (UniProt Q02978),-2.14 °C,-2.38 °C
UniProt P80404,-1.83 °C,-0.384 °C
RBM3 (UniProt P98179),-1.5 °C,–
GBE1 (UniProt Q04446),0.202 °C,-0.189 °C
UniProt P78527,0.226 °C,0.055 °C
UniProt Q11201,-1.13 °C,–
UniProt Q05193,0.434 °C,0.385 °C
UniProt P80303,–,-3.01 °C
TBL3 (UniProt Q12788),1.01 °C,0.33 °C
REL (UniProt Q04864),0.214 °C,0.586 °C
CEBPZ (UniProt Q03701),-0.617 °C,-0.118 °C
UniProt Q13029,-1.84 °C,0.195 °C
CCT2 (UniProt P78371),-1.04 °C,-0.134 °C
UniProt Q08357,–,-2.21 °C
ARHGAP4 (UniProt P98171),-0.879 °C,0.032 °C
SRSF1 (UniProt Q07955),-1.33 °C,0.873 °C

Target,melting temperature shift (MBE1 concentration: 100 nM),melting temperature shift (MBE1 concentration: 1 uM)
UniProt Q08AE8,-1.95 °C,-0.968 °C
BNIP2 (UniProt Q12982),–,-0.664 °C
UniProt Q02446,–,-0.325 °C
UniProt P69905,–,1.25 °C
YWHAH (UniProt Q04917),-0.583 °C,-0.148 °C
VLDLR (UniProt P98155),-0.653 °C,-2.11 °C
RPP30 (UniProt P78346),-6.86 °C,2.43 °C
UniProt P98088,-3.84 °C,-1.61 °C
EIF4G1 (UniProt Q04637),-0.79 °C,-0.55 °C
UniProt Q02952,–,-3.21 °C
UniProt Q12756,-2.28 °C,0.55 °C
NEXN (UniProt Q0ZGT2),1.76 °C,0.586 °C
UniProt P78563,–,0.151 °C
HSPA14 (UniProt Q0VDF9),-0.315 °C,-0.885 °C
UniProt Q12968,-0.122 °C,-0.331 °C
UniProt Q06830,-0.194 °C,-0.818 °C
KHDRBS1 (UniProt Q07666),-0.107 °C,0.25 °C
UniProt P84077,-1.84 °C,0.519 °C
CAV1 (UniProt Q03135),-0.986 °C,-0.521 °C
GABPA (UniProt Q06546),-1.43 °C,-0.725 °C
PITPNA (UniProt Q00169),-1.27 °C,0.635 °C
CSTF1 (UniProt Q05048),-2.03 °C,-2.29 °C
UBXN1 (UniProt Q04323),0.782 °C,1.18 °C
RPL18 (UniProt Q07020),-0.311 °C,-0.104 °C

Target,melting temperature shift (MBE1 concentration: 100 nM),melting temperature shift (MBE1 concentration: 1 uM)
TRAF2 (UniProt Q12933),-0.268 °C,0.417 °C
NSUN2 (UniProt Q08J23),-1.22 °C,-1.27 °C
UniProt Q12860,-1.42 °C,0.401 °C
TFCP2 (UniProt Q12800),-0.378 °C,-0.808 °C
AP1B1 (UniProt Q10567),0.147 °C,0.543 °C
UniProt Q08426,0.216 °C,0.637 °C
SSBP1 (UniProt Q04837),-3.75 °C,-3.38 °C
NPRL3 (UniProt Q12980),0.673 °C,-1.57 °C
SLC7A5 (UniProt Q01650),-3.01 °C,-0.161 °C
CHD3 (UniProt Q12873),-0.224 °C,0.141 °C
FAM3A (UniProt P98173),-0.387 °C,0.208 °C
ARF5 (UniProt P84085),-1.3 °C,-2.66 °C
UniProt Q07890,-0.974 °C,0.782 °C
UniProt Q13043,-0.89 °C,-0.581 °C
UniProt Q07817,-1.25 °C,-1.73 °C
TIAL1 (UniProt Q01085),-0.977 °C,-0.0916 °C
SRSF11 (UniProt Q05519),-0.0366 °C,-0.348 °C
UniProt Q02156,-3.47 °C,5.06 °C
UniProt Q05D32,0.616 °C,0.395 °C
RING1 (UniProt Q06587),-0.391 °C,-0.397 °C
SRPK2 (UniProt P78362),-1.15 °C,-1.73 °C
TYRO3 (UniProt Q06418),-1.02 °C,-0.835 °C
UniProt Q08043,-1.2 °C,-1.04 °C
PLCB3 (UniProt Q01970),-0.202 °C,-0.00611 °C

Target,melting temperature shift (MBE1 concentration: 100 nM),melting temperature shift (MBE1 concentration: 1 uM)
RPP38 (UniProt P78345),-0.181 °C,-0.255 °C
UniProt P78559,-0.844 °C,0.195 °C
ELP6 (UniProt Q0PNE2),-2.61 °C,-2.54 °C
CBX1 (UniProt P83916),-0.427 °C,-0.0183 °C
CRYZ (UniProt Q08257),-0.719 °C,0.614 °C
HDLBP (UniProt Q00341),-0.728 °C,-0.199 °C
MRPS22 (UniProt P82650),-0.391 °C,0.167 °C
UniProt P78312,-1.09 °C,2.06 °C
UniProt Q00537,0.119 °C,1.02 °C
MRPS10 (UniProt P82664),1.22 °C,1.36 °C
CLTC (UniProt Q00610),0.574 °C,0.318 °C
UniProt Q01469,-0.311 °C,-0.904 °C
PAFAH1B2 (UniProt P68402),-0.0753 °C,-0.334 °C
TAP1 (UniProt Q03518),0.165 °C,0.621 °C
ATP7A (UniProt Q04656),0.672 °C,0.568 °C
RBBP4 (UniProt Q09028),-0.495 °C,12.4 °C
UniProt Q01196,-0.433 °C,-0.641 °C
ILF3 (UniProt Q12906),-0.916 °C,-0.916 °C
SOS1 (UniProt Q07889),0.122 °C,0.134 °C
TJP1 (UniProt Q07157),0.36 °C,-0.0794 °C
PSME1 (UniProt Q06323),-0.215 °C,-0.228 °C
TXNL4A (UniProt P83876),0 °C,1.07 °C
UniProt Q01484,0.427 °C,0.354 °C
SRSF3 (UniProt P84103),-3.44 °C,-1.95 °C

Target,melting temperature shift (MBE1 concentration: 100 nM),melting temperature shift (MBE1 concentration: 1 uM)
UniProt Q03164,-0.301 °C,-0.455 °C
DST (UniProt Q03001),6.94 °C,7.17 °C
GRSF1 (UniProt Q12849),-0.63 °C,-0.169 °C
UniProt Q05397,-0.483 °C,0.637 °C
UBE3A (UniProt Q05086),-0.235 °C,0.0783 °C
KLC1 (UniProt Q07866),-0.512 °C,0.0733 °C
MLLT1 (UniProt Q03111),-0.238 °C,-0.177 °C
MRPS36 (UniProt P82909),-0.664 °C,-0.127 °C
MRPS11 (UniProt P82912),-1.94 °C,-2.28 °C
C1QBP (UniProt Q07021),0.0122 °C,0.379 °C
BAX (UniProt Q07812),-2.52 °C,-2.17 °C
HNRNPU (UniProt Q00839),-0.348 °C,-0.466 °C
SRSF4 (UniProt Q08170),0.983 °C,0.0122 °C
BNIP1 (UniProt Q12981),-0.248 °C,-0.396 °C
LGALS3BP (UniProt Q08380),-1.57 °C,1.04 °C
PTPN11 (UniProt Q06124),-0.22 °C,0.183 °C
MYO1E (UniProt Q12965),0.556 °C,0.147 °C
UniProt P78395,-0.397 °C,-0.346 °C
PTPN12 (UniProt Q05209),-0.358 °C,-0.494 °C
UniProt P78357,-1.07 °C,0.202 °C
TFAP4 (UniProt Q01664),-2.07 °C,-0.946 °C
NUP160 (UniProt Q12769),0.763 °C,0.281 °C
EXOSC10 (UniProt Q01780),-0.0192 °C,-0.179 °C
SORD (UniProt Q00796),-1.01 °C,0.337 °C

# Reformatted as tab-separated lines: entries from further up
Target	melting temperature shift (MBE1 concentration: 100 nM)	melting temperature shift (MBE1 concentration: 1 uM)
LGALS3BP (UniProt Q08380)	-1.57 °C	1.04 °C
PTPN11 (UniProt Q06124)	-0.22 °C	0.183 °C
MYO1E (UniProt Q12965)	0.556 °C	0.147 °C
